Measured values taken from patent US20200181255A1 (Amgen, published 2020).
Residue numbers refer to the chain shown, from its start. These are yes or no findings as the source states them, for the method shown. Some entries that bind do so weakly or less than the wild type.

T1: recombinant human IL-23 (human, UniProt Q9NPF7 20-189; P29460 23-328)
T1 sequence 1: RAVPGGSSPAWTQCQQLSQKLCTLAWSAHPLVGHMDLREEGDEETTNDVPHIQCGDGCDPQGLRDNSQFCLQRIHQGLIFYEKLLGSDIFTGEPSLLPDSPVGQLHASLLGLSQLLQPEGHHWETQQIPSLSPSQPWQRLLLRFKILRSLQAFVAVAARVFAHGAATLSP
T1 sequence 2: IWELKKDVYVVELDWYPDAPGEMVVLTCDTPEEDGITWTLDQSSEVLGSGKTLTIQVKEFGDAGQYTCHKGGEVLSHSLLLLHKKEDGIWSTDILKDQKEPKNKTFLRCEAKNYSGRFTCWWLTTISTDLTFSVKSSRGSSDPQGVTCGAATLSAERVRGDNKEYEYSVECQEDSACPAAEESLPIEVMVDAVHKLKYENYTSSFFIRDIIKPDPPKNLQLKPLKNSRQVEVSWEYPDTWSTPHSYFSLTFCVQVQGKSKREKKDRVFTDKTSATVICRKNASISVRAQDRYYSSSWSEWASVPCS

B1: Antibody B (antibody, V domains shown)
VH: QVQLQESGPGLVKPSQTLSLTCTVSGGSISSGGYYWSWIRQHPGKGLEWIGHIHYSGNTYYNPSLKSRVTISVDTSKNQFSLKLSSVTAADTAVYYCAKNRGFYYGMDVWGQGTTVTVSS
VL: DIQMTQSPSSVSASVGDRVTITCRASQVISSWLAWYQQKPGKAPSLLIYAASSLQSGVPSRFSGSVSGTDFTLTISSLQPEDFATYYCQQANSFPFTFGPGTKVDFK
notes: also called VH9/VL9
B2: Antibody L (antibody, V domains shown)
VH: QVQLVESGGGVVQPGRSLRLSCAASGFTFSSYAMHWVRQAPGKGLEWLSVISHDGSIKYYADSVKGRFTISRDNSKNTLYLQMNSLRAEDTAVYYCARERTTLSGSYFDYWGQGTLVTVSS
VL: QAVLTQPSSLSASPGASASLTCTLRSGINVGTYRIYWYQQKPGSPPQYLLRYKSDSDKQQGSGVPSRFSGSKDASANAGILLISGLQSEDEADYYCMIWHSSASVFGGGTKLTVL
notes: also called VH4/VL4
B3: Antibody G (antibody, V domains shown)
VH: QVQLQESGPRLVKPSETLSLTCTVSGDSISSYFWSWIRQPPGKGLEWLGYIYYSGSTNYNPSLKSRVTISIDTSKNQFSLKLSSVTAADTAVYYCTRDRGSYYGSDYWGQGTLVTVSS
VL: B1 VL with S26G, S45K, V66G, E81D, N92T, F96L, P100G, D105E, F106I
notes: also called VH12/VL12

Columns and labels:
[1] = biological target: recombinant human IL-23 (human) (UniProt Q9NPF7); assay: KinExA
[2] = biological target: T1, recombinant human IL-23; assay: KinExA

Binder | binding [1] | binding [2]
B1 | binds | –
B2 | – | binds
B3 | – | binds
